Source: PubChem BioAssay AID1671190 (National Center for Advancing Translational Sciences (NCATS), 2021)
Out of some 580,000 compounds screened, about 6,100 (1.1%) were called active. Inconclusive results, whose numbers are uncertain, are shown with a selection of clear calls. Calls come from the whole dose curve; as a rule, active = well fitted inhibition curve with a large enough effect; inconclusive = small, poorly fitted or top-dose-only effect, or another doubt; inactive = no such curve, though single readings can be large or run the other way. Potencies beside an inconclusive call are fits to weak or partial responses and may not hold up. Where a structure was tested more than once in an assay, its records may differ in their call.

Protein sequences, listed by entry. Tags and fused reporters are not part of them. Lines headed by an entry give the natural chain unless they say otherwise; changes in a name come on top.
UniProt P18054: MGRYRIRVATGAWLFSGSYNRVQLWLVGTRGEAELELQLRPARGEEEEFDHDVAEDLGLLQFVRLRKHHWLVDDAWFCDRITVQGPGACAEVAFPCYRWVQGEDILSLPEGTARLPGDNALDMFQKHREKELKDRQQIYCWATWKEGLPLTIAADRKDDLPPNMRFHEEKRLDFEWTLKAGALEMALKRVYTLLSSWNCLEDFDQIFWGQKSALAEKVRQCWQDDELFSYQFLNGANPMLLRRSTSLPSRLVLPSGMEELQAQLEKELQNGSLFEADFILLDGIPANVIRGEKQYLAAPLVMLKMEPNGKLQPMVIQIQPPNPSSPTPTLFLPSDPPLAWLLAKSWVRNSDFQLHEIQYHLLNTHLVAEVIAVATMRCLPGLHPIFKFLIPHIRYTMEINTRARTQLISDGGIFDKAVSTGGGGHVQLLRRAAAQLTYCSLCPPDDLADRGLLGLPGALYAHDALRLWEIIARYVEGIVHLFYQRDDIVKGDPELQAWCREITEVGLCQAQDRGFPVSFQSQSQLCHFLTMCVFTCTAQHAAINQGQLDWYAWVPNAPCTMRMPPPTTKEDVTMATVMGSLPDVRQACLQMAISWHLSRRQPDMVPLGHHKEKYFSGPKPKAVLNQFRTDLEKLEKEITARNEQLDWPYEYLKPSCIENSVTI

Each molecule was assayed against Polyunsaturated fatty acid lipoxygenase ALOX12 (Homo sapiens) (UniProt P18054) (assay: Primary qHTS assay for inhibitors of human arachidonate 12S-lipoxygenase (ALOX12): Round 2). Conditions: purified 12hLO, xylenol orange hydroperoxide absorbance; activity change, negative = inhibition: at 108 µM (top of the series) unless noted.
In short: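 Hydroperoxide product was detected by ferrous iron/xylenol orange as the 573 to 405 nm absorbance ratio. Arachidonic acid at 40 uM (final) was turned over for 30 min at room temperature by 150 nM human 12hLO, pH 7.0 Hepes buffer, after 15 min compound preincubation.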
% is set by controls: 0 for no effect and ±100 for the full control effect; potency is the fitted concentration of half-maximal effect.

Structure (SMILES) | Potency | activity change, negative = inhibition
Cc1cccn2c(=O)c3cc(C(=O)NCCN4CCOCC4)c(=N)n(CCN4CCOCC4)c3nc12 | inconclusive: 56.2 µM [inhibitor, partial curve, poor fit] | –
CC(C)C(NS(=O)(=O)c1ccc(Br)s1)C(=O)O (stereo not given) | inconclusive: 44.7 µM [inhibitor, partial curve] | –
Cc1ccc(NC(=S)NCCc2c[nH]c3ccccc23)cc1 | inconclusive: 39.8 µM [inhibitor, partial curve, poor fit] | –
O=C(NCc1n[nH]c(=S)n1-c1cccc(Cl)c1)c1ccc(S(=O)(=O)N2CCCCC2)cc1 | inconclusive: 12.6 µM [inhibitor, full curve, poor fit] | –
COc1cccc(C2c3c(oc4cc(C)cc(C)c4c3=O)C(=O)N2CCc2ccc(OC)c(OC)c2)c1 (stereo not given) | inconclusive: 112 µM [inhibitor, partial curve, poor fit] | –
COc1cc(Cn2c3ccc(NC(=O)CC(C)c4ccccc4)cc3c(=O)n2C)ccc1F (stereo not given) | inconclusive: 35.5 µM [inhibitor, partial curve, poor fit] | –
O=C(CNS(=O)(=O)c1ccccc1)Nc1ccccc1Br | inactive | –
CCOc1ccc(C(=O)CN2CCN(S(=O)(=O)c3ccc(Cl)cc3)CC2)cc1 | inconclusive: 44.7 µM [inhibitor, partial curve, poor fit] | –
CCn1c(SCc2ccccc2C)nc(=O)c2c(C(=O)OC)cc(C3CC3)nc21 | inconclusive: 89.1 µM [inhibitor, partial curve, poor fit] | –
CCOC(=O)/C(CCC[N+](C)(CC)CC)=N\O | inconclusive: 44.7 µM [inhibitor, partial curve] | –
COc1ccc(NC(=O)Nc2cccc3c2O[C@H](CN(C)C(=O)Nc2ccc4c(c2)OCO4)[C@@H](C)CN([C@H](C)CO)C3=O)cc1 | – | inconclusive: -32% [inhibitor]
CCCOc1ccc(C2C(C(=O)c3cc4ccccc4o3)=C(O)C(=O)N2CCN(C)C)cc1 (stereo not given) | inconclusive: 44.7 µM [inhibitor, partial curve, poor fit] | –
Cc1ccc(-n2c(Cn3cnc4ccccc43)nnc2SCC(=O)O)cc1 | inconclusive: 15.8 µM [inhibitor, partial curve, poor fit] | –
COC(=O)c1sccc1-c1ccc(C(=O)Nc2cccc(Cl)c2)o1 | inconclusive: 79.4 µM [inhibitor, partial curve, poor fit] | –
C=CCN(CC=C)C(=O)c1c(-c2ccccc2)noc1[C@H](C)O | inconclusive: 70.8 µM [inhibitor, full curve] | –
Cc1cccc(NC(=S)N(Cc2cccc(Br)c2)CC2CCC(C(=O)O)CC2)c1 (stereo not given) | inconclusive: 44.7 µM [inhibitor, partial curve, poor fit] | –
COc1ccc(-c2nc(Cn3c(SCc4cccc(F)c4)nc4ccncc43)c(C)o2)cc1OC | inactive | –
CN1CCCC12Cc1ccccc1CN(S(=O)(=O)c1ccccc1)C2 (stereo not given) | inconclusive: 44.7 µM [inhibitor, full curve] | –
O=C(c1cccnc1)N1CCC2(CCCCO2)CC1 | inconclusive: 79.4 µM [inhibitor, single point] | –
COc1cccc(C(=O)/C(=C/c2ccco2)c2nc3ccccc3o2)c1 | active: 39.8 µM | –
Cc1cc(=O)oc2cc(OCC(=O)NCc3ccco3)ccc12 | inconclusive: 56.2 µM [inhibitor, partial curve, poor fit] | –
O=C(Cn1nc2n(c1=O)CCCC2)Nc1ccc(Br)cc1 | inconclusive: 15.8 µM [inhibitor, full curve] | –

3 structures out of the list, arranged by heavy-atom count, high to low:
Structure (SMILES) | Potency | activity change, negative = inhibition
COc1ccc(NC(=O)Nc2cccc3c2O[C@H](CN(C)C(=O)Nc2ccc4c(c2)OCO4)[C@@H](C)CN([C@H](C)CO)C3=O)cc1 | – | inconclusive: -32% [inhibitor]
Cc1cccn2c(=O)c3cc(C(=O)NCCN4CCOCC4)c(=N)n(CCN4CCOCC4)c3nc12 | inconclusive: 56.2 µM [inhibitor, partial curve, poor fit] | –
COc1cccc(C(=O)/C(=C/c2ccco2)c2nc3ccccc3o2)c1 | active: 39.8 µM | –

Additional compounds.

Structure (SMILES) | Potency | activity change, negative = inhibition
Cc1cnc(C2CC2)n1C1CCCN(Cc2ccccc2)C1 (stereo not given) | inactive | –
CCc1ccc(NS(=O)(=O)c2ccc3oc(=O)c4ncn(CC)c4c3c2)cc1 | inconclusive: 79.4 µM [inhibitor, partial curve, poor fit] | –
O=C(NC1CCCc2ccccc21)c1cc2c(Cl)nc3ccccc3c2s1 (stereo not given) | inconclusive: 35.5 µM [inhibitor, partial curve, poor fit] | –
FC(F)(F)c1nnc(-c2ccccc2)nc1Sc1ccccc1 | inactive | –
COc1ccc(NC(=O)COC(=O)CNC(=O)c2cccs2)cc1Cl | inconclusive: 50.1 µM [inhibitor, partial curve, poor fit] | –
C/C(=N/Nc1ccc(F)cc1)c1ccc(Cl)s1 | inconclusive: 3.16 µM [inhibitor, full curve, poor fit] | –
O=C(Cn1cccc1-c1nc(-c2ccc3c(c2)OCO3)no1)NCCc1ccccc1 | inactive | –
Cc1ccccc1C(=O)NCC(c1ccccc1)c1c[nH]c2ccccc12 (stereo not given) | inconclusive: 141 µM [inhibitor, partial curve, poor fit] | –
COCCNC(=S)N/N=C(\C)c1cc2ccccc2o1 | inconclusive: 50.1 µM [inhibitor, partial curve, poor fit] | –
CCN(CC)c1ccc(NC(=O)OC)cc1 | inconclusive: 2 µM [inhibitor, full curve] | –
O=C(CSc1nnc(Cn2c(=O)sc3ccccc32)n1-c1ccccc1)N1CCOCC1 | – | inconclusive: -33.9% [inhibitor]
CN(CC(=O)NCCCN1CCOCC1)S(=O)(=O)c1cc(Cl)ccc1Cl | inactive | –
Cn1cccc1C(=O)c1ccc(Cl)cc1Cl | inconclusive: 39.8 µM [inhibitor, partial curve, poor fit] | –
CNc1ccc(SC#N)cc1 | inconclusive: 79.4 µM [inhibitor, partial curve, poor fit] | –
Cc1ccc(-c2cc(C(=O)NCc3cnn(C)c3C)c3ccccc3n2)cc1C | inactive | –
Cc1cc(C)n(-c2nc3c(c(=O)n(CC(N)=O)c(=O)n3C)n2CCc2ccccc2)n1 | inactive | –
C/C=C/C(=O)Nc1cccc(C2=NOC3(C2)C[C@@H](C(N)=O)N(C(=O)C(c2ccccc2)c2ccccc2)C3)c1 (stereo not given in full) | inconclusive: 70.8 µM [inhibitor, partial curve, poor fit] | –
Cc1ccc(C(=O)N2CCc3cc(CNC(=O)CSc4ccccc4)ccc32)cc1 | inactive | –
Cc1ccc(-c2ccnc3c(Br)c(C)nn23)cc1 | inconclusive: 50.1 µM [inhibitor, partial curve, poor fit] | –
COc1nc(Nc2ccc3c(c2)OCO3)nc(OC)n1 | inconclusive: 112 µM [inhibitor, single point] | –
CN(C)CCNC(=O)c1ccc(Sc2ccc(Br)cc2)c([N+](=O)[O-])c1 | inconclusive: 39.8 µM [inhibitor, partial curve, poor fit] | –
Cn1cccc1CNCC(O)c1ccccc1 (stereo not given) | inconclusive: 0.282 µM [inhibitor, full curve, poor fit] | –

Structure (SMILES) | Potency | activity change, negative = inhibition
Cc1cccc(-c2c3c(=O)n(C)c(=O)n(C)c3c3c(C)nc4ccccc4n23)c1 | inconclusive: 56.2 µM [inhibitor, partial curve, poor fit] | –
CCn1cc(C(=O)O)c(=O)c2cnc(N3CCN(C(=S)Nc4ccccc4C(F)(F)F)CC3)nc21 | inactive | –
Cc1ccccc1NC(=O)N1CCN(S(=O)(=O)c2ccccc2)CC1 | inactive | –
CC(/C=C/c1ccco1)=N\NC(=O)CNc1ccc2ccccc2c1 | inactive | –
CCOC(=O)c1sc(NC(=O)C2CC(=O)N(c3ccc4c(c3)OCCO4)C2)nc1C (stereo not given) | inconclusive: 44.7 µM [inhibitor, partial curve, poor fit] | –
Cc1cc(C)n(-c2nc(N(C)C)nc(N3CCOCC3)n2)n1 | inactive | –
COCCCNC(=S)N/N=C/c1ccc(O)cc1 | inconclusive: 31.6 µM [inhibitor, single point] | –
Cn1c(Cn2cccn2)nnc1C1CC(NC(=O)c2sccc2N)C1 (stereo not given) | active: 10 µM | –
Cc1ccc(S(=O)(=O)N2CCCCC2)cc1NC(=O)Cn1ccsc1=N | inactive | –
CCOC(=O)C1(CCOC)CCN(Cc2cccc(OCc3ccccc3)c2)CC1 | – | inconclusive: -30.6% [inhibitor]
COc1cccc(-n2c(-c3ccccc3)c[nH]c2=S)c1 | inconclusive: 50.1 µM [inhibitor, partial curve, poor fit] | –
Cc1nn(CCc2nc(-c3ccccc3F)cs2)c2[nH]c(=O)cc(C(F)(F)F)c12 | active: 7.08 µM | –
Cc1ccc(NC(=O)C2CCC(C(C)(C)C)CC2)cc1S(=O)(=O)N1CCOCC1 (stereo not given) | inconclusive: 39.8 µM [inhibitor, partial curve, poor fit] | –
COc1ccccc1CCC(=O)Nc1ccc2c(c1)c(=O)n(C)n2-c1cccs1 | inactive | –
O=C(Nc1ccccc1)Nc1cccc(Cl)c1 | inactive | –
COc1cc(OC)c(OC)cc1CN1CCc2nc(Nc3ccc4c(c3)OCCO4)ncc2C1 | inconclusive: 35.5 µM [inhibitor, partial curve, poor fit] | –
O=C(Cc1c[nH]c2ccccc12)N1CCN(S(=O)(=O)c2ccc(Cl)cc2)CC1 | inconclusive: 56.2 µM [inhibitor, partial curve, poor fit] | –
CC1=C(C(=O)Nc2ccccc2)C(c2ccccc2C)n2nc(SCC(=O)c3ccc(C)cc3)nc2N1 (stereo not given) | inconclusive: 112 µM [inhibitor, partial curve, poor fit] | –
O=C(c1cnn2c1NC(c1ccc(Br)cc1)CC2C(F)(F)F)N1CCN(C23CC4CC(CC(C4)C2)C3)CC1 (stereo not given) | inconclusive: 39.8 µM [inhibitor, partial curve] | –
CCCCCCSc1nnc(-c2cnn(-c3ccccc3)c2-n2cccc2)n1C | inconclusive: 50.1 µM [inhibitor, partial curve, poor fit] | –
CCCCCCC(=O)Nc1c(C)cccc1C | inconclusive: 0.447 µM [inhibitor, full curve, poor fit] | –
